Measured data: PubChem BioAssay AID1259405 (NCATS, 2018)

Aim: 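Mouse-designed siRNAs used to find CHO productivity engineering targets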 (primary screen)
Cell system: Chinese hamster CHO-K1 ovary cells with stable secreted eGFP expression
Reagent: single siRNA against mouse genes, 0.8 pmol siRNA per well (2 µl of 400 nM stock)
Time to read-out: 3 days
Measured: 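Per-well intracellular GFP measured by laser scanning cytometry, plus viability from ATP luminescence, each relative to plate median of non-targeting control wells, in %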
Scale: GFP, % of control: higher = more GFP per well, higher productivity; viability (ATP), % of control: higher = more viable cells (more ATP)
Active means: 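a knock-down is called active if GFP reaches 120% or more of non-targeting control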
Shown is one part, drawn at random, of about 50,000 reagents. About 4,000 of them (8%) were called active. 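Mouse siRNA library applied to hamster cells; one well for each siRNA.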 The numbers tell different reagents against one gene apart.

no.	gene	reagent	GFP, % of control	viability (ATP), % of control	activity call
1	Ankrd33b (ankyrin repeat domain 33B)	1	55.7	37.2	inactive
2	Ankrd33b (ankyrin repeat domain 33B)	2	91.8	99.3	inactive
3	Ankrd33b (ankyrin repeat domain 33B)	3	109	102	inactive
4	Tal2 (T cell acute lymphocytic leukemia 2)	1	73	71	inactive
5	Tal2 (T cell acute lymphocytic leukemia 2)	2	60.7	35.6	inactive
6	Tal2 (T cell acute lymphocytic leukemia 2)	3	59.6	64.7	inactive
7	Gprc5a (G protein-coupled receptor, family C, group 5, member A)	1	65.2	87	inactive
8	Gprc5a (G protein-coupled receptor, family C, group 5, member A)	2	102	92.4	inactive
9	Ace2 (angiotensin converting enzyme 2)	1	87.9	71.3	inactive
10	Ace2 (angiotensin converting enzyme 2)	2	47.2	57.6	inactive
11	Ace2 (angiotensin converting enzyme 2)	3	80.7	79.1	inactive
12	Mlycd (malonyl-CoA decarboxylase)	1	44.2	34.5	inactive
13	Mlycd (malonyl-CoA decarboxylase)	2	69.1	77.5	inactive
14	Mlycd (malonyl-CoA decarboxylase)	3	67.7	45.2	inactive
15	Cbx2 (chromobox 2)	1	77.7	74.8	inactive
16	Cbx2 (chromobox 2)	2	77	95.4	inactive
17	Cbx2 (chromobox 2)	3	38.4	36	inactive
18	Dtna (dystrobrevin alpha)	1	53	54.3	inactive
19	Dtna (dystrobrevin alpha)	2	61.7	79.4	inactive
20	Rtp2 (receptor transporter protein 2)	1	77.4	87.7	inactive
21	Rtp2 (receptor transporter protein 2)	2	75.1	76.9	inactive
22	Rtp2 (receptor transporter protein 2)	3	71	71.3	inactive
23	Srp54a (signal recognition particle 54A)	1	94.5	97.8	inactive
24	Srp54a (signal recognition particle 54A)	2	122	89.1	active
25	Srp54a (signal recognition particle 54A)	3	73.9	49.7	inactive
26	Ddost (dolichyl-di-phosphooligosaccharide-protein glycotransferase)	1	97.8	65.8	inactive
27	Ddost (dolichyl-di-phosphooligosaccharide-protein glycotransferase)	2	82.4	95	inactive
28	Ddost (dolichyl-di-phosphooligosaccharide-protein glycotransferase)	3	110	118	inactive
29	Catsperd (cation channel sperm associated auxiliary subunit delta)	1	101	112	inactive
30	Catsperd (cation channel sperm associated auxiliary subunit delta)	2	100	95.7	inactive
31	Catsperd (cation channel sperm associated auxiliary subunit delta)	3	114	116	inactive
32	Rnf41 (ring finger protein 41)	1	79.5	53.3	inactive
33	Rnf41 (ring finger protein 41)	2	59.9	67.1	inactive
34	Rnf41 (ring finger protein 41)	3	34.9	68.1	inactive

Already shown: entries from further up.
no.	gene	reagent	GFP, % of control	viability (ATP), % of control	activity call
11	Ace2 (angiotensin converting enzyme 2)	3	80.7	79.1	inactive
12	Mlycd (malonyl-CoA decarboxylase)	1	44.2	34.5	inactive
13	Mlycd (malonyl-CoA decarboxylase)	2	69.1	77.5	inactive
14	Mlycd (malonyl-CoA decarboxylase)	3	67.7	45.2	inactive
15	Cbx2 (chromobox 2)	1	77.7	74.8	inactive
16	Cbx2 (chromobox 2)	2	77	95.4	inactive
